# Earlier results as cited in US6261997A, “Slow release formulations of pesticides” (Yissum Research Development Company of the Hebrew …, priority 1996, dated 2001).
# Like-named read-outs stand apart in the source and are kept apart here.
# Details: cited from earlier work
smiles,measurement,setting,value
CCc1cccc(C)c1N(C(=O)CCl)C(C)COC (stereo not shown) [metolachlor],depth at which metolachlor was observed,28 days after treatment,21-27 cm
same,depth at which metolachlor was observed,56 days after treatment,27-33 cm
same,downward movement of metolachlor,"Bowman (1988, 1989)",no more than 10 cm
same,fraction of applied metolachlor found in the superficial layer (0-9 cm),three days after application,84-91%
